From PubChem BioAssay AID588590 (National Center for Advancing Translational Sciences (NCATS), 2011)
About 4,000 (1%) of roughly 390,000 compounds were called active. Inconclusive means that the source gave no clear call. Such entries were picked first, then a sample of the others. Calls follow the shape of the dose curve; as a rule, active = well fitted inhibition curve with a large enough effect; inconclusive = small, poorly fitted or top-dose-only effect, or another doubt; inactive = no such curve, though single readings can be large or run the other way. Where the call is inconclusive, the potency comes from a doubtful curve fit. Residues, ends and D or L forms follow the SMILES beside them. *: point of attachment. Cbz = O=C(OCc1ccccc1)*

Sequences of proteins named here, by UniProt entry; tags and fusion partners are left off. A change or cut given only in a name is not applied to a line headed by its entry.
UniProt Q9UNA4: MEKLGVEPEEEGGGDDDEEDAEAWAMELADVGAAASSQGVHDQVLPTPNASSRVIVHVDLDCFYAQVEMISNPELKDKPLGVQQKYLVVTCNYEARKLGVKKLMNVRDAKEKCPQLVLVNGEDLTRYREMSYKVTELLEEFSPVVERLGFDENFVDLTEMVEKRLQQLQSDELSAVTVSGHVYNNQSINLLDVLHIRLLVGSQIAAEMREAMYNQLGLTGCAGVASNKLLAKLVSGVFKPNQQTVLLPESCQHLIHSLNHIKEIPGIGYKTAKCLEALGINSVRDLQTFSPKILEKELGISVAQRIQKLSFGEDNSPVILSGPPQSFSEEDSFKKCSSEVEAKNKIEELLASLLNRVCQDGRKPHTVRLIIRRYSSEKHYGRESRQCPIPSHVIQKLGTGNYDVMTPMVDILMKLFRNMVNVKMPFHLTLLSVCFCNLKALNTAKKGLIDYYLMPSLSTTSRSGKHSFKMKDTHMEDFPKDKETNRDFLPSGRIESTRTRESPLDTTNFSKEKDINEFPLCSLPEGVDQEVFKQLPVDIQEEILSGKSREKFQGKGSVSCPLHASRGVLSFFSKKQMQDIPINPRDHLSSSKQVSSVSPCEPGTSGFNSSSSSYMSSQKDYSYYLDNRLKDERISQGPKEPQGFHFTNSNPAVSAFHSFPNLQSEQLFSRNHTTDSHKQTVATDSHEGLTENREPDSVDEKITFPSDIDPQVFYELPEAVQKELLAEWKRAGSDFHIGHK

The molecules below were run against DNA polymerase iota (Homo sapiens) (UniProt Q9UNA4) (assay: qHTS for Inhibitors of Polymerase Iota). Conditions: Pol iota fluorescent replication assay, 10 min; series mostly up to 115 µM.
Procedure, shortened: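 Fluorescent replication assay read twice, at 0 min and 10 min after adding 50 nM (final) substrate. Enzyme (10 nM) and compounds were first incubated 15 min at room temperature; enzyme-free buffer wells were negative controls.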
Potency is read from the fitted curve at half-maximal effect.

Row | Compound | Potency
1 | CCOc1ccc(N(CC(=O)N2CCCCC2)S(=O)(=O)c2ccc(Cl)cc2)cc1 | inconclusive: 79.4 µM [inhibitor, single point]
2 | COc1cc(OC)c(NS(=O)(=O)c2ccc3c(c2)CCCN3C(C)=O)cc1Cl | inactive
3 | CCOc1ccccc1NC(=O)c1c(NC(=O)c2cccc(C)c2)sc2c1CCC2 | inactive
4 | CCCc1nc(N2CCOCC2)c(C#N)c2c1CCCC2 | inconclusive: 35.5 µM [inhibitor, single point]
5 | CC(C)C[C@H]1CN=C(Nc2ccccc2)N1CC(C)C | inconclusive: 39.8 µM [inhibitor, single point]
6 | O=C(C1=C(O)C(=O)N(CCOCCO)C1c1cccs1)c1cccs1 (stereo not drawn) | inconclusive: 25.1 µM [inhibitor, partial curve, poor fit]
7 | CN1CCc2c(sc3nc(SCC(N)=O)n(-c4ccc(Cl)cc4)c(=O)c23)C1 | inconclusive: 12.6 µM [inhibitor, partial curve, poor fit]
8 | COC(=O)c1ccc(C23CC4(C2)[C@H](CN(C)[C@@H]4c2ccccc2)C3c2ccccc2)cc1 (stereo partly drawn) | inconclusive: 100 µM [inhibitor, single point]
9 | O=C(/C=C/c1ccccc1)Nc1sc2c(c1C(=O)O)CCC2 | inconclusive: 15.8 µM [inhibitor, partial curve, poor fit]
10 | CCOc1ccc(/C=N/NC2=NCCCCC2)cc1 | inconclusive: 89.1 µM [inhibitor, single point]
11 | CN(C)CCNC(=O)c1cccc2[nH]c(-c3ccncc3)nc12 | inconclusive: 89.1 µM [inhibitor, single point]
12 | COc1ccc(-c2ccc3nnc(SCC(=O)Nc4ccc(NC(C)=O)cc4)n3n2)cc1 | inconclusive: 39.8 µM [inhibitor, single point]
13 | CC(=O)c1cc2c(cc1N/C(=N/S(=O)(=O)c1ccc(C)cc1)c1ccc(F)cc1)OCO2 | inconclusive: 100 µM [inhibitor, single point]
14 | CCOC(=O)CSc1nc2c(c(=O)n(Cc3ccccc3Cl)c(=O)n2C)n1C | inconclusive: 39.8 µM [inhibitor, single point]
15 | Cc1cc(C(=O)Nc2ccc(F)cc2C)n(-c2ccccc2)n1 | inactive
16 | COc1cccc(CNC(=O)C2CCN(c3nnc(-n4c(C)ccc4C)s3)CC2)c1OC | inconclusive: 89.1 µM [inhibitor, single point]
17 | O=C1CSC(c2ccccc2O)N1Cc1ccccc1 (stereo not drawn) | inconclusive: 3.16 µM [inhibitor, partial curve, poor fit]
18 | O=C(c1ccco1)N1C2C=CC(C2)C1(C(F)(F)F)C(F)(F)F (stereo not drawn) | inconclusive: 56.2 µM [inhibitor, partial curve, poor fit]
19 | COC(=O)c1ccc(COc2ccc(C(C)(C)C)cc2)o1 | inconclusive: 0.631 µM [inhibitor, full curve, poor fit]
20 | CC(C)C(NC(=O)C(Cc1ccccc1)NC(=O)OCc1ccccc1)C(=O)O (stereo not drawn) (Cbz-Phe-Val-OH; configuration not given here) | inconclusive: 100 µM [inhibitor, single point]
21 | O=C(C[n+]1cccc2cccc(O)c21)c1ccc(Cl)cc1 | inactive

Part of the list above in order of formula weight, smallest number first:
Row | Compound | Potency
5 | CC(C)C[C@H]1CN=C(Nc2ccccc2)N1CC(C)C | inconclusive: 39.8 µM [inhibitor, single point]
6 | O=C(C1=C(O)C(=O)N(CCOCCO)C1c1cccs1)c1cccs1 (stereo not drawn) | inconclusive: 25.1 µM [inhibitor, partial curve, poor fit]
20 | CC(C)C(NC(=O)C(Cc1ccccc1)NC(=O)OCc1ccccc1)C(=O)O (stereo not drawn) (Cbz-Phe-Val-OH; configuration not given here) | inconclusive: 100 µM [inhibitor, single point]

Next part

Row | Compound | Potency
22 | COc1ccccc1C(=O)NNC(=O)C(=O)NC1CCCCC1 | inconclusive: 14.1 µM [inhibitor, partial curve, poor fit]
23 | CCOc1ccc(NC(=O)CSc2ncc3c(n2)-c2ccccc2N(Cc2ccccc2C)S3(=O)=O)cc1 | inactive
24 | COc1ccccc1NC(=O)N1CCN(c2ccc(F)cc2)CC1 | inconclusive: 31.6 µM [inhibitor, single point]
25 | COc1cccc(C=Nc2ccc(C)c(F)c2)c1O | inactive
26 | O=C(Oc1ccc(C(=S)N2CCOCC2)cc1)c1ccccc1[N+](=O)[O-] | inconclusive: 79.4 µM [inhibitor, partial curve]
27 | Cc1ccc(C2(O)C(=O)c3ccccc3C2=O)c(O)c1C | inconclusive: 89.1 µM [inhibitor, single point]
28 | CCN(CC)c1ccc(NC(=O)/C=C\c2ccccc2Cl)cc1 | inconclusive: 3.16 µM [inhibitor, full curve, poor fit]
29 | O=C1CSC(c2ccncc2)N1Cc1ccccc1 (stereo not drawn) | inconclusive: 89.1 µM [inhibitor, single point]
30 | O=C(NCc1ccco1)c1ccc(Br)s1 | inconclusive: 35.5 µM [inhibitor, partial curve, poor fit]
31 | CC1(C)CC(=O)C(C(C2=C(O)CC(C)(C)CC2=O)c2ccc(Br)s2)C(=O)C1 (stereo not drawn) | inconclusive: 35.5 µM [inhibitor, full curve, poor fit]
32 | COc1ccc(C(=O)Nc2ccc(-c3nnc4n3CCCCC4)cc2)cc1OC | inconclusive: 56.2 µM [inhibitor, partial curve, poor fit]
33 | Cc1occc1C(=O)Nc1nccs1 | inconclusive: 3.16 µM [inhibitor, partial curve, poor fit]
34 | O=C(N1CCOCC1)N1CCC(n2nnc3cc(F)ccc32)CC1 | inconclusive: 39.8 µM [inhibitor, single point]
35 | Cc1ccc(S(=O)(=O)N2CCN(C(=O)CC(C)n3cncn3)CC2)cc1C (stereo not drawn) | inconclusive: 89.1 µM [inhibitor, single point]
36 | CC(C)CC(=O)Nc1sc2c(c1C(=O)O)CCCCC2 | inconclusive: 39.8 µM [inhibitor, single point]
37 | O=C(NC(Cc1ccccc1)C(=O)O)C1CCCCC1 (stereo not drawn) | inconclusive: 89.1 µM [inhibitor, single point]
38 | COc1cc(/C=C(\C#N)c2nc3ccccc3[nH]2)ccc1OCc1cccc(C(F)(F)F)c1 | inconclusive: 89.1 µM [inhibitor, single point]
39 | O=C(c1cc(-c2ccco2)on1)N1CCCc2ccccc21 | inconclusive: 17.8 µM [inhibitor, partial curve, poor fit]
40 | CCN1C(=O)[C@H]2[C@@H](c3ccc(-c4ccc(OC)cc4)cc3)N[C@@](C)(C(=O)OC)[C@H]2C1=O | inconclusive: 28.2 µM [inhibitor, partial curve]
41 | CC(C)c1nc2sc3c(SCC(=O)NCc4ccco4)ncnc3c2c2c1CCC2 | inconclusive: 11.2 µM [inhibitor, partial curve, poor fit]
42 | COc1ccc(C(N)c2nccc3cc(OC)c(OC)cc23)cc1OC (stereo not drawn) | inconclusive: 0.708 µM [inhibitor, full curve, poor fit]

Row | Compound | Potency
43 | Cn1c(=O)c2c(ncn2CC(=O)Nc2cccc(Cl)c2Cl)n(C)c1=O | inactive
44 | Cc1cccc(NC(=O)Nc2nnc(N(C)Cc3ccccc3)s2)c1 | inconclusive: 89.1 µM [inhibitor, partial curve, poor fit]
45 | CN(C(=O)Cn1cc(S(=O)(=O)Cc2ccccc2Cl)c2ccccc21)c1ccccc1 | inconclusive: 89.1 µM [inhibitor, single point]
46 | O=C(O)c1ccc2c(c1)C(=O)N(c1ccc(Nc3ccccc3)cc1)C2=O | inactive
47 | COc1cc(C2N=C(c3ccccc3)NO2)cc(Br)c1O (stereo not drawn) | inconclusive: 11.2 µM [inhibitor, partial curve, poor fit]
48 | O=S(=O)(/C=C/C=C/S(=O)(=O)c1ccccc1)c1ccccc1 | inconclusive: 17.8 µM [inhibitor, full curve, poor fit]
49 | CC1CN(S(=O)(=O)c2cccc(C(=O)OC(C)C(=O)NC3CCCCC3C)c2)CC(C)O1 (stereo not drawn) | inconclusive: 100 µM [inhibitor, single point]
50 | N#CC(C#N)=Cc1cccn1-c1ccc(S(N)(=O)=O)cc1 | inconclusive: 89.1 µM [inhibitor, partial curve, poor fit]
51 | CN(C)CCOC(=O)COc1ccc(Cl)cc1 | inconclusive: 7.08 µM [inhibitor, full curve, poor fit]
52 | Cc1ccc(-c2nnc(SCC(=O)N/N=C/c3cccs3)n2-c2ccc(C)cc2)cc1 | inconclusive: 112 µM [inhibitor, partial curve, poor fit]
53 | CC(=O)OCC1OC(n2cc(F)c(=O)[nH]c2=O)C(OC(C)=O)C1OC(C)=O (stereo not drawn) | inactive
54 | Cc1cccc(NC(=S)NNC(=O)c2ccc(O)cc2O)c1C | inconclusive: 2.24 µM [inhibitor, full curve, poor fit]
55 | CCOC(=O)c1sc(NC(=O)C2c3ccccc3Oc3ccccc32)c(C(=O)OCC)c1C | inconclusive: 89.1 µM [inhibitor, partial curve, poor fit]
56 | COc1ccc(C(=O)CCC(=O)Nc2ccc(N3CCN(C)CC3)cc2)cc1OC | inactive
57 | Cn1cc(C(=O)C(=O)N2CCc3ccccc32)c2ccccc21 | inconclusive: 79.4 µM [inhibitor, single point]
58 | COc1ccc(OC)c2cc3ccccc3cc12 | inconclusive: 7.94 µM [inhibitor, full curve]
59 | Cc1cc2oc(C(=O)Nc3ccc(S(=O)(=O)Nc4onc(C)c4C)cc3)cc(=O)c2cc1Cl | inconclusive: 79.4 µM [inhibitor, partial curve]
60 | O=C(Nc1ccc(S(=O)(=O)Nc2ncccn2)cc1)c1ccccc1Cl | inactive
61 | O=C(Nc1cc(C(F)(F)F)ccc1Cl)c1cc(-c2ccc3c(c2)OCCO3)on1 | inactive
62 | O=C(COc1ccccc1)Nc1nnc(-c2ccccc2)o1 | inconclusive: 44.7 µM [inhibitor, partial curve, poor fit]
63 | COc1ccc(Br)cc1C(=O)NC(=S)Nc1ccc(Cl)c(C(=O)O)c1 | inconclusive: 14.1 µM [inhibitor, partial curve, poor fit]
